Results: US11230581B2, “Peptides and combination of peptides for use in immunotherapy against ovarian cancer and other cancers” (Immatics Biotechnologies GmbH, priority 2015, dated 2022)

Experiments:
[1] = system: ovarian cancer samples; assay: Relative LC-MS quantitation of HLA-presented peptides: presentation and over-presentation on ovarian cancer vs a panel of normal tissues (presentation score); set-up: species or system human; key: +++: very highly over-presented on tumors compared to a panel of normal tissues; ++: highly over-presented on tumors compared to a panel of normal tissues; +: over-presented on tumors compared to a panel of normal tissues; conditions: over-presentation on tumors compared to a panel of normal tissues
[2] = system: additional tumor types; assay: LC-MS detection and over-presentation of the peptides on additional tumor types, cell lines and primary cultures; set-up: species or system human; conditions: for Other relevant organs/ cancerous diseases: Table 4A: additional tumor types on which the peptide was found, over-presented on more than 5% of measured tumor samples, or presented on more than 5% with ratio of geometric means tumor vs normal tissues larger than 3
[3] = amendment of Table 4: additional tumor types showing over-presentation (including specific presentation) on more than 5% of measured tumor samples, or presentation on more than 5% with ratio of geometric means tumor vs normal tissues larger than 3
[4] = additional tumor types with over-presentation on more than 5% of the measured tumor samples, or presentation on more than 5% with ratio of geometric means tumor vs normal tissues larger than 3

Substance | Peptide Presentation (presentation score) [1] | Other relevant organs/ cancerous diseases [2] | Additional organs/cancerous diseases [2, 3] | Additional organs/cancerous diseases [2, 4]
153 (FLIANVLYL; listed as Homo sapiens) [compound 153] | +++ | SCLC, Urinary bladder Cancer, Uterine Cancer | HNSCC | 
155 (RVANLHFPSV; listed as Homo sapiens) [compound 155] | + | Melanoma, Esophageal Cancer | CLL, HNSCC | 
157 (SLNDEVPEV; listed as Homo sapiens) [compound 157] | +++ | NSCLC, Brain Cancer, HCC, Esophageal Cancer, Uterine Cancer | BRCA, Melanoma, Urinary Bladder Cancer, Gallbladder Cancer and Bile Duct Cancer, NHL, HNSCC | 
159 (GLVGNPLPSV; listed as Homo sapiens) [compound 159] | +++ | HCC, Leukemia | BRCA | 
160 (FLFDEEIEQI; listed as Homo sapiens) [compound 160] | ++ |  | BRCA | 
161 (ALLEGVNTV; listed as Homo sapiens) [compound 161] | +++ | NSCLC, Leukemia | AML | 
163 (ALDEMGDLLQL; listed as Homo sapiens) [compound 163] | +++ | HCC | BRCA, Gallbladder Cancer and Bile Duct Cancer, HNSCC | 
164 (ALLPQPKNLTV; listed as Homo sapiens) [compound 164] | +++ |  | Melanoma | 
166 (YLNHLEPPV; listed as Homo sapiens) [compound 166] | +++ | SCLC, HCC, Leukemia, Esophageal Cancer | Brain Cancer, CLL, BRCA, AML, NHL | 
167 (KVLEVTEEFGV; listed as Homo sapiens) [compound 167] | ++ | NSCLC, HCC, Melanoma | BRCA, Urinary Bladder Cancer | 
169 (NLPEYLPFV; listed as Homo sapiens) [compound 169] | +++ | SCLC, BrCa, Urinary bladder Cancer |  | 
170 (RLQETLSAA; listed as Homo sapiens) [compound 170] | +++ | HCC, Esophageal Cancer | Urinary Bladder Cancer, AML | 
172 (VLYSYTIITV; listed as Homo sapiens) [compound 172] | +++ |  | SCLC, CLL, Uterine Cancer, NHL | 
174 (ALAQYLITA; listed as Homo sapiens) [compound 174] | ++ | Brain Cancer, HCC, PrC, Esophageal Cancer, Urinary bladder Cancer | SCLC, BRCA, Melanoma, Gallbladder Cancer and Bile Duct Cancer | 
175 (YLFENISQL; listed as Homo sapiens) [compound 175] | +++ |  | Esophageal Cancer, Urinary Bladder Cancer, HNSCC | 
176 (YLMEGSYNKVFL; listed as Homo sapiens) [compound 176] | +++ | NSCLC, SCLC, CRC, HCC, Melanoma | Urinary Bladder Cancer, Gallbladder Cancer and Bile Duct Cancer | 
177 (YLLPEEYTSTL; listed as Homo sapiens) [compound 177] | +++ | Melanoma, Esophageal Cancer | NHL, HNSCC | 
178 (ALTEIAFVV; listed as Homo sapiens) [compound 178] | + | CRC, HCC, PrC | SCLC, CLL, BRCA, Melanoma, Uterine Cancer | 
179 (KVLNELYTV; listed as Homo sapiens) [compound 179] | +++ | NSCLC | CRC, BRCA, Melanoma, Uterine Cancer | 
180 (FQIDPHSGLVTV; listed as Homo sapiens) [compound 180] | +++ |  | SCLC | 
182 (MLLEAPGIFL; listed as Homo sapiens) [compound 182] | +++ |  | CLL | 
185 (FLIDDKGYTL; listed as Homo sapiens) [compound 185] | +++ |  | HNSCC | 

Substance | Peptide Presentation (presentation score) [1] | Other relevant organs/ cancerous diseases [2] | Additional organs/cancerous diseases [2, 3] | Additional organs/cancerous diseases [2, 4]
186 (TLFFQQNAL; listed as Homo sapiens) [compound 186] | + |  |  | PC, NHL, HNSCC
187 (RQISIRGIVGV; listed as Homo sapiens) [compound 187] | +++ |  |  | NSCLC, Urinary Bladder Cancer, Uterine Cancer, AML, HNSCC
188 (GLFPVTPEAV; listed as Homo sapiens) [compound 188] | + | Colon, Rectum, HCC |  | Uterine Cancer
190 (FLSSLTETI; listed as Homo sapiens) [compound 190] | +++ | Urinary bladder Cancer |  | BRCA, Uterine Cancer, Gallbladder Cancer and Bile Duct Cancer
191 (LLQEGQALEYV; listed as Homo sapiens) [compound 191] | +++ |  |  | Uterine Cancer, Gallbladder Cancer and Bile Duct Cancer
192 (KMLDGASFTL; listed as Homo sapiens) [compound 192] | +++ |  |  | BRCA
197 (ALGPEGGRV; listed as Homo sapiens) [compound 197] | ++ | HCC |  | Uterine Cancer
199 (ALQDVPLSSV; listed as Homo sapiens) [compound 199] | +++ | Melanoma |  | SCLC, Urinary Bladder Cancer
200 (LLFGSVQEV; listed as Homo sapiens) [compound 200] | +++ | SCLC, PC, PrC, Esophageal Cancer, Gallbladder Cancer, Bile Duct Cancer |  | 
201 (RLVDYLEGI; listed as Homo sapiens) [compound 201] | +++ | NSCLC, HCC, Esophageal Cancer |  | SCLC, Uterine Cancer, Gallbladder Cancer and Bile Duct Cancer, AML
204 (KIAENVEEV; listed as Homo sapiens) [compound 204] | +++ | NSCLC, HCC, PC, Leukemia, BrCa, Esophageal Cancer |  | 
205 (SLYPGTETMGL; listed as Homo sapiens) [compound 205] | +++ | SCLC, Gallbladder, Bile duct |  | AML
206 (VLQEGKLQKLAQL; listed as Homo sapiens) [compound 206] | +++ |  |  | NSCLC, SCLC, BRCA, Uterine Cancer, HNSCC
208 (KISPVTFSV; listed as Homo sapiens) [compound 208] | +++ | HCC |  | 
209 (KLIESKHEV; listed as Homo sapiens) [compound 209] | +++ | Brain Cancer, HCC |  | Melanoma, Uterine Cancer
211 (LLWPGAALL; listed as Homo sapiens) [compound 211] | +++ |  |  | CLL, AML, NHL
212 (ALWDQDNLSV; listed as Homo sapiens) [compound 212] | +++ | HCC, PrC, BrCa, Urinary bladder Cancer |  | 
213 (VTAAYMDTVSL; listed as Homo sapiens) [compound 213] | ++ | NSCLC, SCLC, HCC, Melanoma, Esophageal Cancer, Gallbladder Cancer, Bile Duct Cancer |  | 
216 (NLWEDPYYL; listed as Homo sapiens) [compound 216] | +++ | SCLC, PrC, BrCa, Urinary bladder Cancer |  | 
217 (ALIHPVSTV; listed as Homo sapiens) [compound 217] | +++ | NSCLC, RCC, HCC, Melanoma, Esophageal Cancer |  | Urinary Bladder Cancer BRCA, Urinary Bladder Cancer, Uterine Cancer, Gallbladder Cancer and Bile Duct Cancer
218 (SALEELVNV; listed as Homo sapiens) [compound 218] | +++ | RCC |  | 
222 (NLIENVQRL; listed as Homo sapiens) [compound 222] | ++ | NSCLC, RCC, CRC, HCC, Melanoma, Esophageal Cancer, Urinary bladder Cancer |  | 
